Among the data in patent US20150166647A1 are binding values, retold here.

Protein sequences, listed by entry. Tags and fused reporters are not part of them. Lines headed by an entry give the natural chain unless they say otherwise; changes in a name come on top.
UniProt P10147: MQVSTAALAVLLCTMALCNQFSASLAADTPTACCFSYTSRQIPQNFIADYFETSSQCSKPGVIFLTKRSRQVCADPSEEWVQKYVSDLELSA

Results are given in words; binding and its absence hold for the method and conditions named. Some entries that bind do so weakly or less than the wild type.

The target in experiment [1] is human MIP-1α/CCL3 (human) (UniProt P10147). The experiment is described as follows: MSD electrochemiluminescence, coated chemokine, purified antibody 3 µg/mL (FIG. 10).
Experiment [2] shares this target. Kind of experiment: Binding (MSD).
The target is the same in experiment [3]. Kind of experiment: ELISA, hybridoma supernatant. Background: An ELISA detects its analyte on a solid surface through an enzyme-linked reagent.
Experiment [4] shares this target. The experiment is described as follows: MSD electrochemiluminescence assay; chemokine coated at 1 µg/mL, 7D1G at 3 µg/mL; background = BSA.
The target in another experiment is T1, Teck.
T1 sequence (chemokine): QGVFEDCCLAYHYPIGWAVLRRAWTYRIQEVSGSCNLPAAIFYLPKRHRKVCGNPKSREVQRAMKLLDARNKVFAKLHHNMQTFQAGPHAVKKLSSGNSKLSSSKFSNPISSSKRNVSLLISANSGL
The experiment is described as follows: MSD electrochemiluminescence assay; chemokine coated at 1 µg/mL, 18V4F at 3 µg/mL; background = BSA.

The target in experiment [5] is Fractalkine. Described as above.
Another experiment has as its target T2, CXCL16.
T2 sequence (chemokine): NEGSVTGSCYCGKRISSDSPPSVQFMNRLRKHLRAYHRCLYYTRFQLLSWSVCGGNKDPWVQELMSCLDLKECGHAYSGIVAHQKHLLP
The experiment is described as above.

Experiment [6] addresses human MIP-1α/CCL3 (human) (UniProt P10147). Described as above.
The next experiment deals with T3, Eotaxin-3.
T3 sequence (chemokine): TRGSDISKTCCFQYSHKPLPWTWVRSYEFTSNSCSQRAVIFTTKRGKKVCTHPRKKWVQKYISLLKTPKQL
The experiment is described as above.

Experiment [7] has as its target MCP-2. The description is as above.
The next experiment has as its target T4, IP-10.
T4 sequence (chemokine): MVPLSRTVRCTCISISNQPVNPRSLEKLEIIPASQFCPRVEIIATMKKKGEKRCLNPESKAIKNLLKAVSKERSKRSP
Described as above.

The target in a further experiment is T5, MIG.
T5 sequence (chemokine): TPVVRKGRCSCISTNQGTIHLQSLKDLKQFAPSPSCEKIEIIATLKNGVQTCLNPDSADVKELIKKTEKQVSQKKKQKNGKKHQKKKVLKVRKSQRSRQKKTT
The description is as above.

For another experiment, the target named is SLC. The description is as above.
The target in the next experiment is T6, CCL28.
T6 sequence (chemokine): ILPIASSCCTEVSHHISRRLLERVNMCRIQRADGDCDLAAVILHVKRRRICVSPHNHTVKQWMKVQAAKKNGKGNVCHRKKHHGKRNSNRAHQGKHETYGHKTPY
The experiment is described as above.

For experiment [8], the target named is human MIP-1α/CCL3 (human) (UniProt P10147). Kind of experiment: MSD electrochemiluminescence, coated chemokine, purified antibody 3 µg/mL (FIG. 11).
For experiment [9] the target is unchanged. Kind of experiment: ELISA, hybridoma clone supernatant.
Experiment [10] shares this target. Kind of experiment: MSD electrochemiluminescence assay; chemokine coated at 1 µg/mL, 18P7E as unquantitated hybridoma supernatant; background = BSA.
For experiment [11] the target is unchanged. Kind of experiment: MSD electrochemiluminescence, coated chemokine, hybridoma supernatant (FIG. 12).
Experiment [12] has the same target. The experiment is described as follows: MSD electrochemiluminescence, coated chemokine, purified antibody 3 µg/mL (FIG. 9).
Experiment [13] shares this target. The experiment is described as follows: MSD electrochemiluminescence assay; chemokine coated at 1 µg/mL, 7D12A at 3 µg/mL; background = BSA.
Experiment [14] shares this target. The experiment is described as follows: ELISA, purified antibody (FIG. 1) and original supernatant.
For experiment [15], the target named is Fractalkine. The experiment is described as follows: MSD electrochemiluminescence assay; chemokine coated at 1 µg/mL, 3C12F at 3 µg/mL; background = BSA.
Experiment [16] deals with human MIP-1α/CCL3 (human) (UniProt P10147). Described as above.
The target of experiment [17] is MCP-2. The description is as above.
Experiment [18] addresses human MIP-1α/CCL3 (human) (UniProt P10147). The experiment is described as follows: ELISA with purified 3C12F on biotinylated or directly coated chemokine; antibody concentration not given.
Experiment [19] has the same target. The experiment is described as follows: MSD electrochemiluminescence, coated chemokine, purified antibody 3 µg/mL (FIG. 8).

B1: monoclonal antibody 7D1G (antibody, V domains shown)
VH: QVQLQQPGAELVKPGASVKMSCKASGYTFTSYNIHWVKQTPGQGLEWIGAVSPRNGDTSYNQRFKGKATLTADISSSTAYMQLSSLTSEDSAVYYCARGYGYDYWGQGTTLTVSS
VL: DVVLTQSPATLSVTPGDRVSLSCRASQSVSKYLHWYQQKSHESPRLLIKYVSQSISGIPSRFSGSGSGTDFTLSINSVETEDLGMYFCQQSNSWPHTFGAGTKLELK
As for B1, the binding result in experiment [1], in [2], in experiment [3] and in experiment [4] was “binds” throughout.

B2: monoclonal antibody 18V4F (antibody, V domains shown)
VH: QVQLKESGPGLVAPSQSLSITCTVSGFSLTGYGIHWVRQPPGKGLEWLGVIWPGGGTNYNSALMSRLSISKDNSKSQVFLKMNSLQTDDTAMYYCARGPLITTEVSMDYWGQGTSVTVSS
VL: QAVVTQESALTTSPGETVTLTCRSNTGAVTTSNYANWVQEKPDHLFTGLIGGTNNRAPGVPARFSGSLIGDKAALTITGAQTEDEAIYFCALWYSNHWVFGGGTKLTVLG
With B2, the binding entry was “no binding (tested: 3 µg/mL)” with Teck; “no binding (tested: 3 µg/mL)” in the experiment with Fractalkine [5]; “no binding (tested: 3 µg/mL)” with CXCL16; “binds” in experiment [6]; “no binding (tested: 3 µg/mL)” with Eotaxin-3; “no binding (tested: 3 µg/mL)” with MCP-2 [7]. The binding result in the experiment with IP-10 is recorded as “no binding (tested: 3 µg/mL)”; with MIG, “no binding (tested: 3 µg/mL)”; with SLC, “no binding (tested: 3 µg/mL)”; with CCL28 it was “no binding (tested: 3 µg/mL)”; in experiment [2] it was “binds”; in experiment [8], “binds”. The binding result in experiment [3] and in experiment [9] was “binds” each time.

B3: monoclonal antibody 18P7E (antibody, V domains shown)
VH: QVQLKESGPGLVAPSQSLSITCTVSGFSLTGYGIHWVRQPPGKGLEWLGVIWPGGGTNYNSALMSRLNISKDNSKSQVFLKMNSLQTDDTAMYYCARGPLITTEVSMDYWGQGTSVTVSS
VL: QAVVTQESALTTSPGETVTLTCRSNTGAVTTSNYANWVQEKPDHLFTGLIGGTNNRAPGVPARFSGSLIGDKAALTITGAQTEDEAIYFCALWYSNHWVFGGGTKLTVLG
As to B3, the binding entry in experiment [2], in experiment [3], in experiment [10], in [11] and in experiment [9] was “binds” each time.

B4: monoclonal antibody 7D12A (antibody, V domains shown)
VH: EVHLQESGPSLVKPSQTLSLTCSVTGDSITNGYWNWIRKFPGNKLDYMGYISYDGNTYYNPSLKSRFSITRDTSKNQYYLQLNSVTTEDTATYYCSRGDYGTYVMDYWGQGTSVTVSS
VL: NIVLTQSPVSLAVSLGQRATISCRASESVDSHGNSFMHWYQQKPGQPPKLLIYLASNLESGVPARFTGGGSGSDFTLTIDPVEADDVGTYYCQQNNEDPYTFGGGTKLEIK
In the case of B4, the binding result in experiment [2], in experiment [3], in experiment [12] and in [13] was “binds” each time.

B5: monoclonal antibody 3C12F (antibody, V domains shown)
VH: EVQLQQSGAELVKPGASVKLSCTASGFNIKDTYIHWVKQRPEQGLEWIGRIDPANGNTQYDPKFQGKATITADTSSNTAYLQLTSLTSEDTAVYYCARRWDYDYAMDYWGQGTSVTVSS
VL: DIQMTQSPASLSASVGETVTITCRGSGNIHNYLAWYQQKQGKSPQLLVYNAKTLADGVPSRFSGSGSGTQYSLKINSLQPEDFGSYYCQHFWSTPYTFGGGTKLEIK
Regarding B5, the binding result was “binds” in [2]; “binds” in [14]; “no binding (tested: 3 µg/mL)” with Fractalkine [15]; “binds” in [16]; “no binding (tested: 3 µg/mL)” in the experiment with MCP-2 [17]; “binds” in [18]. Besides, the binding result in experiment [19] is reported as “binds”.
